Our source for the binding values is PMC2211464.

By UniProt entry, the sequences of proteins in these tests, tags left out. Where a name states a change or a piece, a line headed by the entry shows the natural chain unless it says otherwise.
UniProt P63330: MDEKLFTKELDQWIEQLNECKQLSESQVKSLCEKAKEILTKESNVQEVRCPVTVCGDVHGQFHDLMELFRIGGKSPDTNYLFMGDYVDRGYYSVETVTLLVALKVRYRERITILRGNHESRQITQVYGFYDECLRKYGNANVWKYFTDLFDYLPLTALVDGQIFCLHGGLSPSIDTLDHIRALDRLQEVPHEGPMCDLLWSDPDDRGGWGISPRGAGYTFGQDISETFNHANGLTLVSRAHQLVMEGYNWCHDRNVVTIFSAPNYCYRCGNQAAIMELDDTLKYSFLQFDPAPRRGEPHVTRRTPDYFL

These are yes or no findings as the source states them, for the method shown. For some assays here: Binding calls can cover weak binding; strength is not graded here. For some assays here: Tags and fused reporters may be left off the sequences shown. For some assays here: In cells and extracts the contact can be indirect.

The target of assay [1] is T1, Dishevelled-2 (mouse (endogenous in F9)) (UniProt Q60838).
T1 sequence: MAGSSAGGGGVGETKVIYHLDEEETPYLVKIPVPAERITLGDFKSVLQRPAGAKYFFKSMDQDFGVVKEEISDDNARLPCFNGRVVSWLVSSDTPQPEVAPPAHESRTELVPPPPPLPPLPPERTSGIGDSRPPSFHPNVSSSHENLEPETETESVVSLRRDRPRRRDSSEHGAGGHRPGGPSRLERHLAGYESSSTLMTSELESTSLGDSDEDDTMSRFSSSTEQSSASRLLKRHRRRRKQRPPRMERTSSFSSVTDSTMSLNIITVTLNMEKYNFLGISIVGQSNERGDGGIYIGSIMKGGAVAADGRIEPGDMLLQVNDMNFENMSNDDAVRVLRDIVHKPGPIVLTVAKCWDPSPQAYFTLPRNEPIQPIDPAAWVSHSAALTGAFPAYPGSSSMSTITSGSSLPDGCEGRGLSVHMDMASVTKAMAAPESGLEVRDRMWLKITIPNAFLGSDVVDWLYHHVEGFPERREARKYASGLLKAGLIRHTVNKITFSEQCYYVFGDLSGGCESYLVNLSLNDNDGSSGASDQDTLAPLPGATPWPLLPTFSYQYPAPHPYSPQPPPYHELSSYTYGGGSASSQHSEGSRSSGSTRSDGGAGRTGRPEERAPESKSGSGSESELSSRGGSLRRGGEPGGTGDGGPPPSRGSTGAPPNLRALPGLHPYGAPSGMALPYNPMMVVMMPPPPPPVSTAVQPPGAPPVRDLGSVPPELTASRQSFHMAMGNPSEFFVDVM
The assay is described as follows: co-IP; lysates of F9 cells (Figure 9A: cytosolic fraction, 1 mg, cells stimulated with Wnt3a for 0-2 hr) precipitated with anti-Dvl2 antibody; blot with anti-PP2A C-subunit; mouse IgG as control.

In assay [2] the target is T2, GST-DEP (amino acids 433-507 of Dvl2) (mouse) (UniProt Q60838).
T2 sequence: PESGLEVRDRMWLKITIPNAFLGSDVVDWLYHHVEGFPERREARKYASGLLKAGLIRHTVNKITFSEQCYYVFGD
In words: pull-down; purified PP2A (AC dimer, 0.2 μg) incubated 1 hr at 4°C with GST fusions of Dvl2 domains or GST on gel; washed with PBS with 0.5% NP-40; blot with anti-PP2A C-subunit and anti-GST; both purified.

In assay [3] the target is T3, GST-DIX (amino acids 11-93 of Dvl2) (mouse) (UniProt Q60838).
T3 sequence: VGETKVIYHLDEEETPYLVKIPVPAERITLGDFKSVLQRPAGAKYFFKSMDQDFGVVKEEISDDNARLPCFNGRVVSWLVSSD
The description is as above.

For assay [4], the target named is T4, GST-PDZ (amino acids 267-339 of Dvl2) (mouse) (UniProt Q60838).
T4 sequence: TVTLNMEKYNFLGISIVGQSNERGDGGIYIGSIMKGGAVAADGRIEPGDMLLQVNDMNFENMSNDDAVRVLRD
The description is as above.

Assay [5] deals with T5, GST-SH3 (amino acids 370-376 of Dvl2) (mouse) (UniProt Q60838).
T5 sequence: PIQPIDP
The description is as above.

Take “Phosphoprotein phosphatase-2A (detected by its C-subunit) (from UniProt P63330) (enzyme)”: the binding entry in assay [1] is given as “binds”.

Regarding “Purified PP2A (AC dimer) (mouse) (complex)”, the binding result in assay [2] is reported as “binds”; in assay [3] it was “no binding (tested: 0.2 μg PP2A)”; in assay [4], “no binding (tested: 0.2 μg PP2A)”; in assay [5], “no binding (tested: 0.2 μg PP2A)”.
